Laboratory results: PubChem BioAssay AID686943 (Drosophila RNAi Screening Center, 2013)
Screen: 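Search across the genome for regulators of signalling from receptor tyrosine kinase to ERK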 (primary screen). Cells: Drosophila S2R+ haemocyte-like cells expressing YFP-tagged ERK (Rolled). Reagent: long dsRNA against Drosophila genes. Treatment: insulin stimulation versus unstimulated cells; dose and duration not given. Read-out: 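Per-plate z-scores of phospho-ERK immunostaining normalised to YFP-tagged ERK, measured with and without insulin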. Reading the numbers: replicate 1, z-score of dpERK with insulin and replicate 2, z-score of dpERK with insulin: higher = more active ERK per ERK-YFP after insulin; replicate 1, z-score of dpERK under basal conditions: higher = more basal active ERK per ERK-YFP; replicate 1, z-score of ERK-YFP with insulin: higher = more YFP-tagged ERK signal.
The deposit covers about 23,000 reagents; shown is an unselected part of those with a known target gene and a result. 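Extra replicates exist only for a retested subset of genes; insulin dose and duration not given; both raised and lowered dpERK matter.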 A plus sign joins genes that one reagent is predicted to hit. The record does not give: the amount of reagent, the time to read-out.

gene,DRSC id,"replicate 1, z-score of dpERK with insulin","replicate 2, z-score of dpERK with insulin","replicate 1, z-score of dpERK under basal conditions","replicate 1, z-score of ERK-YFP with insulin"
kri (GeneID 38655),DRSC10515,0.19,-0.33,1.27,-0.3
Ude (GeneID 42953),DRSC15324,0.17,0.72,-0.29,0.74
CG14253 (GeneID 43243),DRSC14748,-0.61,-0.32,1.48,0.61
CG32706 + CG6999,DRSC18412,-0.21,-0.55,-0.73,-0.03
CG7824 (GeneID 43530),DRSC16321,-0.32,-0.17,0.56,1.04
lncRNA:sphinx (GeneID 4379815),DRSC17199,-0.34,-0.74,-1.87,2.13
CG31650 (GeneID 326150),DRSC03140,-0.9,0.52,-0.33,-0.54
CG42544 (GeneID 8674002),DRSC12451,-1.7,-0.63,0.49,-2.46
MFS10 (GeneID 32263),DRSC19888,0.13,-0.05,-0.17,-0.07
defl (GeneID 39141),DRSC10300,-1.46,-3.8,1.3,0.77
CG12926 (GeneID 35996),DRSC06239,0.45,-0.13,0.09,0.23
CG12926 (GeneID 35996),DRSC21930,-0.03,-0.22,-0.57,0.87
CecA1 (GeneID 43596),DRSC16603,0.25,-0.08,1.68,-0.49
CG13847 (GeneID 42636),DRSC14697,-1.89,0.44,-0.17,-1.95
fig (GeneID 43511),DRSC16270,-0.74,-0.07,-0.73,0.95
beta4GalNAcTA (GeneID 36585),DRSC05944,0.35,0.41,2.77,0.49
Sirt2 (GeneID 42414),DRSC15714,0.74,0.6,0.38,0.39
lncRNA:sphinx + ATPsynF,DRSC17191,-0.42,-1.54,-1.9,1.37
CG1622 (GeneID 32282),DRSC19745,-0.05,-0.74,0.09,0.42
Atg10 (GeneID 50253),DRSC06172,0.18,0.18,4.9,0.47
CG15475 (GeneID 35319),DRSC02486,-0.15,1.14,-0.34,0.73
CG34253 + lncRNA:CR32194,DRSC09531,-0.22,0.17,-0.56,0.05
CG13603 (GeneID 42838),DRSC14606,0.38,0.24,-1.31,0.8
shg (GeneID 37386),DRSC04714,0.36,0.14,0.27,0.59
Mctp (GeneID 37165),DRSC06510,-0.76,-0.65,-0.16,0.42
Mctp (GeneID 37165),DRSC22896,0.3,0.29,0.52,0.05
CG5853 (GeneID 34322),DRSC01103,-0.36,-0.21,0.51,0.76
CG5853 (GeneID 34322),DRSC02906,0.25,0.37,0.02,0.63
Dhc36C (GeneID 35061),DRSC03315,0.18,-0.89,0.18,0.06
dah (GeneID 32459),DRSC20320,-0.61,-0.51,-0.28,0.16
dUTPase (GeneID 34529),DRSC01998,0.34,0.39,0.31,-0.16
Pgant5 (GeneID 326151),DRSC03149,0.5,1.27,0.19,0.64
Stoml2 (GeneID 37807),DRSC04326,0,-0.36,0.95,0.1
ph-p (GeneID 31181),DRSC18820,1.01,-0.43,0.45,0.13
CG32564 (GeneID 326222),DRSC19933,0.85,0.69,-1.19,-0.08
CG7071 + Muted,DRSC16189,-0.5,-0.12,0.28,-0.3
CG14968 (GeneID 38406),DRSC08427,0.66,1.32,0.54,-0.2
CG9192 (GeneID 38134),DRSC08639,0.12,0.1,-0.32,0.25
ppk (GeneID 34843),DRSC03595,0.4,0.44,-0.14,1.26
CG6508 (GeneID 34493),DRSC02963,0.45,0.26,0.5,-0.34
CG11334 (GeneID 43713),DRSC14066,-0.2,0.35,0.68,1.45
CG11334 (GeneID 43713),DRSC14302,0.3,0.19,-0.93,0.22
CG13689 (GeneID 33241),DRSC00358,0.16,-0.7,-1.56,0.04
CG2059 (GeneID 31663),DRSC18203,0.47,0.24,0.2,0.2
Mct1 (GeneID 31198),DRSC18681,-0.29,0.56,-0.8,-0.2
CG13449 (GeneID 39695),DRSC09996,0.27,0.8,0.94,0.32
Rab40 (GeneID 32195),DRSC19820,0.51,1.99,4.41,0.48
Ldh (GeneID 45880),DRSC11198,1.38,0.55,0.27,0.39
CG42246 (GeneID 7354415),DRSC17520,-0.65,0.29,-0.56,0.27
AQP (GeneID 36456),DRSC06122,-0.3,0.1,0.36,0.03
CG11307 (GeneID 40400),DRSC11648,-0.34,0.07,0.46,0.07
su(r) (GeneID 31858),DRSC18705,1.49,0.97,0.71,-0.77
TTLL5 (GeneID 43015),DRSC14181,-0.38,0.83,0.48,-0.4
CG33235 (GeneID 2768871),DRSC19641,0.39,0.83,0.21,0.01
asRNA:CR43299 + CG8119,DRSC20083,-0.83,0.03,-0.56,-0.09
CG1671 (GeneID 36019),DRSC06617,-0.38,-0.21,0.21,0.52
ste24a (GeneID 36908),DRSC07314,0.42,0.79,0.44,0.13

Entries listed so far whose target name begins with L or l:
gene,DRSC id,"replicate 1, z-score of dpERK with insulin","replicate 2, z-score of dpERK with insulin","replicate 1, z-score of dpERK under basal conditions","replicate 1, z-score of ERK-YFP with insulin"
lncRNA:sphinx (GeneID 4379815),DRSC17199,-0.34,-0.74,-1.87,2.13
lncRNA:sphinx + ATPsynF,DRSC17191,-0.42,-1.54,-1.9,1.37
Ldh (GeneID 45880),DRSC11198,1.38,0.55,0.27,0.39
